Reference: patent US20090233858A1
No constants are given. Whether binding was seen depends on the method and setting. Some entries that bind do so weakly or less than the wild type.

Sequences of proteins named here, by UniProt entry; tags and fusion partners are left off. A change or cut given only in a name is not applied to a line headed by its entry.
UniProt P30153: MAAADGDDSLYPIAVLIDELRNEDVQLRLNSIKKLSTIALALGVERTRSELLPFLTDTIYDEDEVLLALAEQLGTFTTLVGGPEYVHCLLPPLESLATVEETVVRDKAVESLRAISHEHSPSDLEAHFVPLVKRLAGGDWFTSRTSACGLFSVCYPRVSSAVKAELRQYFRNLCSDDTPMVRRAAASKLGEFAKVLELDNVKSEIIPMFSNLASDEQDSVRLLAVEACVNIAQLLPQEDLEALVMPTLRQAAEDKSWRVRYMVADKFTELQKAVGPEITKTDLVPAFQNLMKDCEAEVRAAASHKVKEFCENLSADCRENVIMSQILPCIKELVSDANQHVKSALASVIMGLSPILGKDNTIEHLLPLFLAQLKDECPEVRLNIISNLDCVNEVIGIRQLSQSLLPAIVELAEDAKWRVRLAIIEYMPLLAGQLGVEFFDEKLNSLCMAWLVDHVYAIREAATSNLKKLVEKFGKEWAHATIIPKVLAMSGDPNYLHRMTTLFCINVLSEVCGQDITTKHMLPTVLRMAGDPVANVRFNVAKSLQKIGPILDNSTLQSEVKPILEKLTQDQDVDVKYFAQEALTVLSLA

Target: heterotrimeric PP2A holoenzyme involving the Bα subunit (human) (UniProt P30153)
Experiment: native PAGE and gel filtration

B1: Tau fragment (residues 265-328) (peptide)
peptide: GSLGNIHHKPGGGQVEVKSEKLDFKDRVQSKIGSLDNITHVPGGGNKKIETHKLTFRENAKAKT
Q: Which binding does the source give for B1 here?
A: binds
